Experimental data: PubChem BioAssay AID1508588 (Peter MacCallum Cancer Centre, 2020)
Aim: 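Which gene losses make BRAF-mutant melanoma cells more responsive to vemurafenib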 (primary screen). Cells: human WM266.4 melanoma cells (BRAF V600 mutant). Reagents: siRNA pool against human genes, 40 nM. Timing: 96 h from transfection to read-out. Treatment: vemurafenib 300 nM (about IC25), added 48 h after transfection, for 48 h; comparison arm got DMSO vehicle only. Measured: 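Ratios to non-targeting siRNA for cell gain, counted as DAPI nuclei after minus before drug and averaged over two replicates, and for absorbance-read medium lactate per cell; both binned into fold-change classes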. Reading the numbers: cell gain with vemurafenib: higher = more cell gain than with non-targeting siRNA; lactate per cell with vemurafenib: higher = more lactate made per cell. Rule for the call: 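a knock-down counts as enhancing when its fold-change classes with vehicle and with vemurafenib, taken together, show a stronger drug effect on cell gain or lactate per cell; exact class pairs not stated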. Calls: active = enhances vemurafenib effect; inactive = no enhancement seen.
Here is one part, drawn at random, of about 18,000 deposited reagents. 790 of them (4.4%) count as active. 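Calls rest on a combination of fold-change classes in drug and vehicle arms, not all shown here.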 Unmarked entries are inactive. Reagent sequences are not shown.

What did the screen give for MATN4 (matrilin 4)?
cell gain with vemurafenib: 0.03; lactate per cell with vemurafenib: 1.95

With SLC15A4, how do the results read?
cell gain with vemurafenib: 0.99; lactate per cell with vemurafenib: 0.44

With CUL4B (cullin 4B), how do the results read?
cell gain with vemurafenib: 0.35; lactate per cell with vemurafenib: 1.52

For SLC25A20, what does the deposit list?
cell gain with vemurafenib: 0.94; lactate per cell with vemurafenib: 0.52

With MRPL14 (mitochondrial ribosomal protein L14), how do the results read?
cell gain with vemurafenib: 0.69; lactate per cell with vemurafenib: 0.88

What did the screen give for ITGA8 (integrin subunit alpha 8)?
cell gain with vemurafenib: 1.04; lactate per cell with vemurafenib: 1.1

What is on record for PNMT (phenylethanolamine N-methyltransferase)?
cell gain with vemurafenib: 0.03; lactate per cell with vemurafenib: 1.02

What is on record for RGS5 (regulator of G protein signaling 5)?
cell gain with vemurafenib: 0.34; lactate per cell with vemurafenib: 1.02

Which result is listed for IER5 (immediate early response 5)?
cell gain with vemurafenib: 0.25; lactate per cell with vemurafenib: 0.74

What did the screen give for RNF113A (ring finger protein 113A)?
cell gain with vemurafenib: 0.87; lactate per cell with vemurafenib: 0.5

What did the screen give for BAALC (BAALC binder of MAP3K1 and KLF4)?
cell gain with vemurafenib: 0.29; lactate per cell with vemurafenib: 1.59

With ZNF639 (zinc finger protein 639), what was measured?
cell gain with vemurafenib: 0.13 (active); lactate per cell with vemurafenib: 0.54

With CYCS (cytochrome c, somatic), what was measured?
cell gain with vemurafenib: 0.44; lactate per cell with vemurafenib: 1.02

A run of entries from the list above, as a working copy:
MATN4 (matrilin 4) → cell gain with vemurafenib: 0.03; lactate per cell with vemurafenib: 1.95
SLC15A4 → cell gain with vemurafenib: 0.99; lactate per cell with vemurafenib: 0.44

Continued.
With ZNF681 (zinc finger protein 681), what does the deposit list?
cell gain with vemurafenib: 0.89; lactate per cell with vemurafenib: 1.06

With CCDC141 (coiled-coil domain containing 141), what was measured?
cell gain with vemurafenib: 0.84; lactate per cell with vemurafenib: 0.78

With ANXA2R (annexin A2 receptor), how do the results read?
cell gain with vemurafenib: 1.07; lactate per cell with vemurafenib: 0.57

How did the screen score NSMCE3 (NSE3 component of SMC5/6 complex)?
cell gain with vemurafenib: 0.25; lactate per cell with vemurafenib: 0.78

With IL22 (interleukin 22), what was measured?
cell gain with vemurafenib: 0.38; lactate per cell with vemurafenib: 0.86

What is on record for RSU1 (Ras suppressor protein 1)?
cell gain with vemurafenib: 0.55; lactate per cell with vemurafenib: 1.23

With RBM28 (RNA binding motif protein 28), how do the results read?
cell gain with vemurafenib: 0.52; lactate per cell with vemurafenib: 0.9

For COL25A1 (collagen type XXV alpha 1 chain), how do the results read?
cell gain with vemurafenib: 0.46; lactate per cell with vemurafenib: 1.15

With P2RY2 (purinergic receptor P2Y2), what does the deposit list?
cell gain with vemurafenib: 0.7; lactate per cell with vemurafenib: 0.68

What did the screen give for GNG8 (G protein subunit gamma 8)?
cell gain with vemurafenib: 0; lactate per cell with vemurafenib: 0

For OTUB1 (OTU deubiquitinase, ubiquitin aldehyde binding 1), what does the deposit list?
cell gain with vemurafenib: 0.27; lactate per cell with vemurafenib: 0.92

Which result is listed for OR51E1 (olfactory receptor family 51 subfamily E member 1)?
cell gain with vemurafenib: 0.78; lactate per cell with vemurafenib: 1.28

With CBARP (CACN subunit beta associated regulatory protein), how do the results read?
cell gain with vemurafenib: 1.01; lactate per cell with vemurafenib: 0.64

For ASCL4 (achaete-scute family bHLH transcription factor 4), how do the results read?
cell gain with vemurafenib: 0.85; lactate per cell with vemurafenib: 0.99
